Measured values: paper doi:10.1101/2021.11.02.466889
Like-named read-outs stand apart in the source and are kept apart here. Results are given in words; binding and its absence hold for the method and conditions named. Some binding calls cover weakened binding; strength is not graded here.

Chains of the proteins cited; added tags and fusions are not shown.
UniProt A0A0D1DWQ2: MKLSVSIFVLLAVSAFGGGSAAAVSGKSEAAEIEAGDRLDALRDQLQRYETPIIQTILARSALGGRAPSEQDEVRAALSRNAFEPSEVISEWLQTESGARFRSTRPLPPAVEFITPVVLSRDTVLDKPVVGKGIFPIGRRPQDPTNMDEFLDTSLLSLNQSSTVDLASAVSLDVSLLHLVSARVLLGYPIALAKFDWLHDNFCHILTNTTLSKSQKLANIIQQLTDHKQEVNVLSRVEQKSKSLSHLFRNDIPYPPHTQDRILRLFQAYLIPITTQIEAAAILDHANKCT

Legend:
Assay in all cases: two-hybrid
[1] = molecular target: chorismate mutase (Cmu1), yeast two-hybrid fusions (Ustilago maydis)
[2] = molecular target: chorismate mutase (Cmu1), yeast two-hybrid fusions (Ustilago maydis); remark: listed apart in the source
[3] = molecular target: chorismate mutase (Cmu1), yeast two-hybrid fusions (Ustilago maydis); remark: listed apart in the source

Measured: binding

chorismate mutase (Cmu1), yeast two-hybrid fusions (from UniProt A0A0D1DWQ2 1-290) (enzyme)
binds: all assays above
